Measured values reported in PubChem BioAssay AID1720 (National Center for Advancing Translational Sciences (NCATS), 2009).
The inconclusive results got no clear call from the source; some entries with a clear call stand among them for comparison. Active and inactive are the calls of the source. No stated cut-off is given here; in the data, active means inhibition above about 40%; inconclusive means no clear call, values can overlap the other calls; inactive means below about 18%.

Sequences of proteins named here, by UniProt entry; tags and fusion partners are left off. Residues count along the entry.
UniProt P10636, 561-689 P618L limits assumed: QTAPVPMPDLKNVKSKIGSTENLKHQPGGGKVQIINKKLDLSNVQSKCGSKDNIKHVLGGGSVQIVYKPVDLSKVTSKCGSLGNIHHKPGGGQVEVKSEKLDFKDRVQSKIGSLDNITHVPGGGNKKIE
UniProt P10636, whole entry, looked up: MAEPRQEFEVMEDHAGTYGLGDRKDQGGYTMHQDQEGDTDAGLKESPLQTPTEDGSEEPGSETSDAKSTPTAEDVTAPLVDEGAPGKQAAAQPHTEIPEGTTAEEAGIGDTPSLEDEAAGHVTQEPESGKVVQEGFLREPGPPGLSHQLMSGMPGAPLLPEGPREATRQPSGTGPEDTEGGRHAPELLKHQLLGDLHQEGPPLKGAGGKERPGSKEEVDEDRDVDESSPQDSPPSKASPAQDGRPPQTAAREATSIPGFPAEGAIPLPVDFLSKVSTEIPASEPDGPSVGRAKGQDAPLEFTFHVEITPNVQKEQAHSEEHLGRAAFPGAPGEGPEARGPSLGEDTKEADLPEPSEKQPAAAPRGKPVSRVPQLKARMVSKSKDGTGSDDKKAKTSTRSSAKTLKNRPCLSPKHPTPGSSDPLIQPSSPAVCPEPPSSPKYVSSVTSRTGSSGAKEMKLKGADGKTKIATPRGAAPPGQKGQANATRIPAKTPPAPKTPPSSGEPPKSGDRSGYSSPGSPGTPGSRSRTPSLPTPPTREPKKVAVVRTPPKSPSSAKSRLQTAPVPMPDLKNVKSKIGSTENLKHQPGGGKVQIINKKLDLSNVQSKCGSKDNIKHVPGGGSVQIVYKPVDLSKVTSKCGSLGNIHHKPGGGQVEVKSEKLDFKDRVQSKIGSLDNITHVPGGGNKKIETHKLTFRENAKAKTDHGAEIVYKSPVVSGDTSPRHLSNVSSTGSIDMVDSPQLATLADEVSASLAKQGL

molecular target: Microtubule-associated protein tau (Homo sapiens) (UniProt P10636); experiment: Sedimentation Assay for Inhibitors of Tau Fibrillization; conditions: recombinant tau K18 P301L (four-repeat tau fragment), sedimentation SDS-PAGE densitometry; at 100 µM; active compounds read high
Excerpt: NIH Molecular Libraries Probe Production Network [MLPCN] NIH Chemical Genomics Center [NCGC] MLPCN Grant: X01 MH083262-01 Assay Provider: Carlo Ballatore, University of Pennsylvania NCGC Assay Overview: The microtubule-associated protein tau is an abundant protein in the axons of neurons that stabilizes microtubules. With its ability to modulate microtubule dynamics, tau contributes directly or indirectly, to key structural and regulatory cellular functions. Particularly important is the influence tau exerts on axonal transport, which allows signaling molecules, trophic factors and other essential cellular constituents to travel along the axons. Under pathological conditions, tau becomes sequestered into insoluble aggregates called neurofibrillary tangles. This phenomenon is believed to have pathological consequences by promoting axonal transport deficits that ultimately lead to synaptic dysfunction and neuronal loss. The ability of compounds to block tau fibrillization was assessed using a sedimentation assay. Unlike tau monomers, tau fibrils readily sediment upon centrifugation. Samples from the tau ThT confirmation assay treated with 100 uM compound (AID 1558) were centrifuged and the amount of tau present in the supernatant and pellet was determined. Crowe, A., Ballatore, C., Hyde, E., Trojanowski, J. Q., and Lee, V. M. Y. (2007) Biochemical and Biophysical Research Communications 358, 1-6.
NCGC Assay Protocol Summary: Human K18 P301L tau (15 uM) in assay buffer (20 uM heparin, 12.5 uM Thioflavine T, 100 mM sodium acetate pH 7) was centrifuged at 186,000 x g for 30 min and the supernatant removed from the pellet. Pellets were resuspended in a volume equal to the supernatant and equal amounts of supernatants and pellet were analyzed by SDS-PAGE using a 12.5% acrylamide gel. The gel was stained with Coomassie Blue and the percentage of tau in each fraction was determined by densitometry.

SMILES	inhibition
Cc1ccc(NCc2cc3cc4c(cc3n(CC(=O)Nc3ccc(C)cc3)c2=O)OCCO4)cc1	inactive: 9%
CC(/C=C1\SC(=S)N(NC(=O)c2cccc(O)c2)C1=O)=C\c1ccccc1	inconclusive: 24%
Cc1ccc(C(=O)Nc2nc(=O)n(C(=O)CC(C)C)s2)cc1	inactive: 12%
CCOC(=O)c1ccc(S(=O)(=O)Nc2nc3cc(S(=O)(=O)NC4=NCCCCC4)ccc3s2)cc1	active: 68%
Cc1cc2c(N)cccc2nn1	active: 64%
Nc1c(-c2ccccc2)cc[nH]c1=O	inactive: 9%
CC(=O)Nc1nc(C)c(-c2csc(Nc3ccc(O)cc3)n2)s1	inconclusive: 32%
O=C(Nc1ccc(OC(F)(F)F)cc1)Nc1cccc([N+](=O)[O-])c1	inactive: 13%
CCOC(=O)c1nn(-c2ccc(C)c(C)c2)c(=O)c2c(N)scc12	inconclusive: 28%
CCOC(=O)c1nn(-c2ccccc2)c(=O)c2c(NC(=O)c3ccccc3)scc12	inactive: 2%
Cc1ccc(N2C(=O)SC(Cc3ccccc3)C2=O)cc1 (stereo not given)	inconclusive: 31%
Cn1ncc(Cl)c1C(=O)Nc1cccc(Cl)c1	active: 93%
CN(c1ccccc1)S(=O)(=O)c1nnc(NC(=O)COc2ccccc2)s1	inconclusive: 24%
CC(=O)Nc1sc(C)c2cnn(-c3ccccc3)c(=O)c12	inactive: 5%
O=C(Nc1nc2ccc(S(=O)(=O)N3CCCC3)cc2s1)c1ccc(F)cc1	inactive: 14%
CCOC(=O)c1nn(-c2ccc(C)cc2)c(=O)c2c(N)scc12	inconclusive: 35%
CN(C)S(=O)(=O)c1cccc(N=C2NN=C(c3ccccc3)CS2)c1	inconclusive: 28%
COC(=O)c1c(NC(=O)CCCOc2ccc(C(C)(C)C)cc2)sc2c1C(C(=O)OC)CC2 (stereo not given)	inconclusive: 32%

3 entries out of the list, sorted by molar mass, rising:
SMILES	inhibition
Cc1cc2c(N)cccc2nn1	active: 64%
Cc1ccc(N2C(=O)SC(Cc3ccccc3)C2=O)cc1 (stereo not given)	inconclusive: 31%
CCOC(=O)c1nn(-c2ccc(C)c(C)c2)c(=O)c2c(N)scc12	inconclusive: 28%

Following part

SMILES	inhibition
COc1ccc(NC(=O)C2CCN(S(=O)(=O)c3c(C)noc3/C=C/c3cccs3)CC2)cc1Cl	inactive: 8%
Cc1ccc(-c2ccc(/C=N/N=C3/NC(=O)C(CC(=O)O)S3)o2)c([N+](=O)[O-])c1 (stereo not given)	inconclusive: 31%
CN(C)c1ccc(N2C(=O)CSC2=S)cc1	inactive: 11%
COc1cccc(CNc2cccc3cccnc23)c1O	inconclusive: 24%
CCc1ccc(S(=O)(=O)Nc2cc(SCC(=O)O)c(O)c3ccccc23)cc1	active: 77%
Cc1ccc(C2=NNC(=Nc3ccc(F)cc3)SC2)cc1	inconclusive: 27%
CCN(c1ccccc1)S(=O)(=O)c1nnc(NC(=O)C(C)(C)C)s1	inactive: 18%
Cc1ccc(S(=O)(=O)N(C)c2nc3ccccc3[nH]c2=S)cc1	inconclusive: 29%
Cc1nc2ccccc2oc1=O	inactive: 13%
COc1ccc(Nc2nc(-c3sc(NC(C)=O)nc3C)cs2)cc1	active: 42%
O=C(Nc1nnc(S(=O)(=O)Nc2ccccc2)s1)C1CCCCC1	inactive: 10%
Cc1cc2c(NC(=O)Nc3ccccc3)cccc2nn1	inconclusive: 30%
CN(C)C(=O)c1ccc(-c2cc[nH]c(=O)c2N)cc1	active: 48%
CCOC(=O)c1nn(-c2ccccc2F)c(=O)c2c(N)scc12	inconclusive: 20%
NC[C@H](O)c1ccc(O)c(O)c1	active: 75%
COc1ccc2[nH]c(=O)c(CNc3cccc(C)c3)cc2c1	active: 85%
CCn1nccc1C(=O)Nc1cc(Cl)cc(Cl)c1	inconclusive: 22%
